Drawing on publication PMC5670223, this text covers binding for six molecules.

Protein sequences, listed by entry. Tags and fused reporters are not part of them.
UniProt O48963: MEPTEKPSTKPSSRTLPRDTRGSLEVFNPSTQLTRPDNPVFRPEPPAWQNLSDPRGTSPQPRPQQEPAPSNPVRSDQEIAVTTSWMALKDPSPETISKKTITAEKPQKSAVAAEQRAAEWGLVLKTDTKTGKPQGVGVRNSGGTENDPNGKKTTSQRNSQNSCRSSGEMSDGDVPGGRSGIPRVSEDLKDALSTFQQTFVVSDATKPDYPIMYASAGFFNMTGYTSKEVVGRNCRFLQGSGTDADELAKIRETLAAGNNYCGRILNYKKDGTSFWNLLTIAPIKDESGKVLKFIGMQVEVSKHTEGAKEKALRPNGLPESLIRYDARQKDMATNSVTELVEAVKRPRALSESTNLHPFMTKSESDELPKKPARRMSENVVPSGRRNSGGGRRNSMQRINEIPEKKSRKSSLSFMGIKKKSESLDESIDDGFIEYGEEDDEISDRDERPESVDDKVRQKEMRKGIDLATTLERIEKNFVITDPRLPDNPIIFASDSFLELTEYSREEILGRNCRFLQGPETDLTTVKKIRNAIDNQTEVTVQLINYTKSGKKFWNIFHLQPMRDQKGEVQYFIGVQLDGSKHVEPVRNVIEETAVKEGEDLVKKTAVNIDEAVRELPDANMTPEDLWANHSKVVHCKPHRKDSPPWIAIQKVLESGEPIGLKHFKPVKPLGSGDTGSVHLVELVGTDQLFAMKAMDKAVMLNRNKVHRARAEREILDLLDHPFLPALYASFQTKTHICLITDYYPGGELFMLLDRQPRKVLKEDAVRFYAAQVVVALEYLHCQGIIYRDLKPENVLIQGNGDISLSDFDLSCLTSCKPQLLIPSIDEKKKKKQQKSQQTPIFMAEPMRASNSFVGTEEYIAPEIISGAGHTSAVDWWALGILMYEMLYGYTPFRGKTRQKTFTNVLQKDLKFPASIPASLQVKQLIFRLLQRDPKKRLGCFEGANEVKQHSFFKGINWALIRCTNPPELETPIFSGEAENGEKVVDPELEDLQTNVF

Assay [1] concerns the target T1, CBC1-nYFP (Arabidopsis thaliana) (UniProt Q9SSA4).
T1 sequence: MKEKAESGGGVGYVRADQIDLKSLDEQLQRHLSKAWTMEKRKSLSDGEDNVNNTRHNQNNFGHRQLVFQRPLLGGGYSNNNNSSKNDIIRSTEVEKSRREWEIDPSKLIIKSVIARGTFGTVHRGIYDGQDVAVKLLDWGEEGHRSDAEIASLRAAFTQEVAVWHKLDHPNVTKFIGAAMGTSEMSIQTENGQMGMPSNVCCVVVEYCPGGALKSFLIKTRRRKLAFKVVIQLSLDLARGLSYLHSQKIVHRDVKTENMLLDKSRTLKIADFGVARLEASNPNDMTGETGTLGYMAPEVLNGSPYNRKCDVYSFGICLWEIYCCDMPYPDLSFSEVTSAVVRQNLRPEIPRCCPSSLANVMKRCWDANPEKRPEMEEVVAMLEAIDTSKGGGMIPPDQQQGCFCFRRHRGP
In words: split reporter; BiFC: nYFP- and cYFP-fused constructs co-transformed into Arabidopsis mesophyll protoplasts by PEG-calcium transfection; YFP fluorescence by confocal microscopy.

Assay [2] deals with T2, CBC2 (D245N)-nYFP, kinase-dead (Arabidopsis thaliana) (UniProt Q9FGB1).
T2 sequence: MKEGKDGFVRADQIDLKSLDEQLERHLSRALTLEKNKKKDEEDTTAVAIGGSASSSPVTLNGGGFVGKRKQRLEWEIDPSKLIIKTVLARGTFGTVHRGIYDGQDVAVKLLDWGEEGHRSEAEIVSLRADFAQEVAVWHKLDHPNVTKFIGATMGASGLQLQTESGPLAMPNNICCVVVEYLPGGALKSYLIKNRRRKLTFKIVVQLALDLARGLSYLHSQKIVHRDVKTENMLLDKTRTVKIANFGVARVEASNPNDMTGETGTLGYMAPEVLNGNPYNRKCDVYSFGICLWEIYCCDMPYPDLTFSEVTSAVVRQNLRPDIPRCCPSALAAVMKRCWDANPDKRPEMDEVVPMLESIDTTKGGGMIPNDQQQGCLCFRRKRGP
The description is as above.

Assay [3] addresses T3, FLAG-CBC1 (Arabidopsis thaliana) (UniProt Q9SSA4).
T3 sequence: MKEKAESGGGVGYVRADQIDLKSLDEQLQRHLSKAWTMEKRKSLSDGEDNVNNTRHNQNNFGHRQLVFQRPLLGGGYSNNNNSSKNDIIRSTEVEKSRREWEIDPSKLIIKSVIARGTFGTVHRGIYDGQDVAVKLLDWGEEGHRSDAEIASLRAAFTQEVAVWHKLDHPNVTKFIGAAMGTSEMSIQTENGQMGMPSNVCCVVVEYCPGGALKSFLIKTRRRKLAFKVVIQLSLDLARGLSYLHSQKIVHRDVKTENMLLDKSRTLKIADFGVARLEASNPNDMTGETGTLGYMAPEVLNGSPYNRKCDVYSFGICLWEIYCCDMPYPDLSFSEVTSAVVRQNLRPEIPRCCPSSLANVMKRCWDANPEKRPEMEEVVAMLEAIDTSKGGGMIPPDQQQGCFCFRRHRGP
Nature of the assay: pull-down; His-tagged and FLAG-tagged proteins made by in vitro transcription/translation, mixed in 20 mM Tris-HCl pH 7.4, 140 mM NaCl, 0.1% Triton X-100, on ice 10 min; FLAG protein captured on anti-FLAG M2 Affinity Gel 1 h at 4 °C; bound His protein detected by immunoblot with a His tag antibody.

For assay [4], the target named is T4, FLAG-CBC2 (Arabidopsis thaliana) (UniProt Q9FGB1).
T4 sequence: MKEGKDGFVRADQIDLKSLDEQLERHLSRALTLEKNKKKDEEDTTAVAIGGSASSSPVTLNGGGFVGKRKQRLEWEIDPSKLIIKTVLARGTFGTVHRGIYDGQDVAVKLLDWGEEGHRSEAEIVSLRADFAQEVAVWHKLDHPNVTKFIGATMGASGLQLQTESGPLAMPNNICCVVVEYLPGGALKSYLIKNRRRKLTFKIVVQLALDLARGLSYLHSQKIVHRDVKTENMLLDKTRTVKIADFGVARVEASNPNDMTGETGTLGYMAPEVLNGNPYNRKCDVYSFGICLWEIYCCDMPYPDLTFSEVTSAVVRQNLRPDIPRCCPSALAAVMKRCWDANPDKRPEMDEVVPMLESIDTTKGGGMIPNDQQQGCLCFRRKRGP
Described as above.

The target of assay [5] is FLAG-phot1 (phototropin 1) (Arabidopsis thaliana) (UniProt O48963). Described as above.
Assay [6] addresses phot1-cYFP (Arabidopsis thaliana) (UniProt O48963). Nature of the assay: split reporter; BiFC: nYFP- and cYFP-fused constructs co-transformed into Arabidopsis mesophyll protoplasts by PEG-calcium transfection; YFP fluorescence by confocal microscopy.

These are yes or no findings as the source states them, for the method shown. In cells and extracts the contact can be indirect. Some binding calls cover weakened binding; strength is not graded here. Tags and fused reporters may be left off the sequences shown.

B1: HT1-cYFP (protein, UniProt Q2MHE4 1-390)
chain: MSGLCFNPFRLRWSLRSKLPLEPSLPNLPCNPSSSKTNRYAEAETMEKKRFDSMESWSMILESENVETWEASKGEREEWTADLSQLFIGNKFASGAHSRIYRGIYKQRAVAVKMVRIPTHKEETRAKLEQQFKSEVALLSRLFHPNIVQFIAACKKPPVYCIITEYMSQGNLRMYLNKKEPYSLSIETVLRLALDISRGMEYLHSQGVIHRDLKSNNLLLNDEMRVKVADFGTSCLETQCREAKGNMGTYRWMAPEMIKEKPYTRKVDVYSFGIVLWELTTALLPFQGMTPVQAAFAVAEKNERPPLPASCQPALAHLIKRCWSENPSKRPDFSNIVAVLEKYDECVKEGLPLTSHASLTKTKKAILDHLKGCVTSISSPFSSSSVPVNA
As to B1, the binding entry in assay [1] and in assay [2] was “binds” in each case.

B2: His-HT1 (HIGH LEAF TEMPERATURE 1 kinase) (protein, UniProt Q2MHE4 1-390)
chain: MSGLCFNPFRLRWSLRSKLPLEPSLPNLPCNPSSSKTNRYAEAETMEKKRFDSMESWSMILESENVETWEASKGEREEWTADLSQLFIGNKFASGAHSRIYRGIYKQRAVAVKMVRIPTHKEETRAKLEQQFKSEVALLSRLFHPNIVQFIAACKKPPVYCIITEYMSQGNLRMYLNKKEPYSLSIETVLRLALDISRGMEYLHSQGVIHRDLKSNNLLLNDEMRVKVADFGTSCLETQCREAKGNMGTYRWMAPEMIKEKPYTRKVDVYSFGIVLWELTTALLPFQGMTPVQAAFAVAEKNERPPLPASCQPALAHLIKRCWSENPSKRPDFSNIVAVLEKYDECVKEGLPLTSHASLTKTKKAILDHLKGCVTSISSPFSSSSVPVNA
Consider B2, for which the binding result in assay [3] and in assay [4] was “binds” in each case.

B3: His-CBC2 (CO… OF BL AND CO2 2 kinase) (protein, UniProt Q9FGB1 1-385)
chain: MKEGKDGFVRADQIDLKSLDEQLERHLSRALTLEKNKKKDEEDTTAVAIGGSASSSPVTLNGGGFVGKRKQRLEWEIDPSKLIIKTVLARGTFGTVHRGIYDGQDVAVKLLDWGEEGHRSEAEIVSLRADFAQEVAVWHKLDHPNVTKFIGATMGASGLQLQTESGPLAMPNNICCVVVEYLPGGALKSYLIKNRRRKLTFKIVVQLALDLARGLSYLHSQKIVHRDVKTENMLLDKTRTVKIADFGVARVEASNPNDMTGETGTLGYMAPEVLNGNPYNRKCDVYSFGICLWEIYCCDMPYPDLTFSEVTSAVVRQNLRPDIPRCCPSALAAVMKRCWDANPDKRPEMDEVVPMLESIDTTKGGGMIPNDQQQGCLCFRRKRGP
On to B3, for which the binding entry in assay [3], in assay [4] and in assay [5] was “binds” in each case.

B4: CBC2 (D245N)-nYFP, kinase-dead (protein, UniProt Q9FGB1 1-385)
chain: MKEGKDGFVRADQIDLKSLDEQLERHLSRALTLEKNKKKDEEDTTAVAIGGSASSSPVTLNGGGFVGKRKQRLEWEIDPSKLIIKTVLARGTFGTVHRGIYDGQDVAVKLLDWGEEGHRSEAEIVSLRADFAQEVAVWHKLDHPNVTKFIGATMGASGLQLQTESGPLAMPNNICCVVVEYLPGGALKSYLIKNRRRKLTFKIVVQLALDLARGLSYLHSQKIVHRDVKTENMLLDKTRTVKIANFGVARVEASNPNDMTGETGTLGYMAPEVLNGNPYNRKCDVYSFGICLWEIYCCDMPYPDLTFSEVTSAVVRQNLRPDIPRCCPSALAAVMKRCWDANPDKRPEMDEVVPMLESIDTTKGGGMIPNDQQQGCLCFRRKRGP
For the molecule B4, the binding entry in assay [6] is “binds”.

B5: His-CBC1 (CO… OF BL AND CO2 1 kinase) (protein, UniProt Q9SSA4 1-411)
chain: MKEKAESGGGVGYVRADQIDLKSLDEQLQRHLSKAWTMEKRKSLSDGEDNVNNTRHNQNNFGHRQLVFQRPLLGGGYSNNNNSSKNDIIRSTEVEKSRREWEIDPSKLIIKSVIARGTFGTVHRGIYDGQDVAVKLLDWGEEGHRSDAEIASLRAAFTQEVAVWHKLDHPNVTKFIGAAMGTSEMSIQTENGQMGMPSNVCCVVVEYCPGGALKSFLIKTRRRKLAFKVVIQLSLDLARGLSYLHSQKIVHRDVKTENMLLDKSRTLKIADFGVARLEASNPNDMTGETGTLGYMAPEVLNGSPYNRKCDVYSFGICLWEIYCCDMPYPDLSFSEVTSAVVRQNLRPEIPRCCPSSLANVMKRCWDANPEKRPEMEEVVAMLEAIDTSKGGGMIPPDQQQGCFCFRRHRGP
B5: the binding entry in assay [3], in assay [4] and in assay [5] was “binds” in each case.

B6: CBC1-nYFP (protein, UniProt Q9SSA4 1-411)
chain: MKEKAESGGGVGYVRADQIDLKSLDEQLQRHLSKAWTMEKRKSLSDGEDNVNNTRHNQNNFGHRQLVFQRPLLGGGYSNNNNSSKNDIIRSTEVEKSRREWEIDPSKLIIKSVIARGTFGTVHRGIYDGQDVAVKLLDWGEEGHRSDAEIASLRAAFTQEVAVWHKLDHPNVTKFIGAAMGTSEMSIQTENGQMGMPSNVCCVVVEYCPGGALKSFLIKTRRRKLAFKVVIQLSLDLARGLSYLHSQKIVHRDVKTENMLLDKSRTLKIADFGVARLEASNPNDMTGETGTLGYMAPEVLNGSPYNRKCDVYSFGICLWEIYCCDMPYPDLSFSEVTSAVVRQNLRPEIPRCCPSSLANVMKRCWDANPEKRPEMEEVVAMLEAIDTSKGGGMIPPDQQQGCFCFRRHRGP
In the case of B6, in assay [6], the binding entry is on record as “binds”.
